PubChem BioAssay AID504847 (National Center for Advancing Translational Sciences (NCATS), 2011)
Out of some 400,000 compounds screened, about 3,700 (0.93%) were called active. Inconclusive results, whose numbers are uncertain, are shown with a selection of clear calls. Calls follow the shape of the dose curve; as a rule, active = well fitted inhibition curve with a large enough effect; inconclusive = small, poorly fitted or top-dose-only effect, or another doubt; inactive = no such curve, though single readings can be large or run the other way. Where the call is inconclusive, the potency comes from a doubtful curve fit.

By UniProt entry, the sequences of proteins in these tests, tags left out. Where a name states a change or a piece, a line headed by the entry shows the natural chain unless it says otherwise.
UniProt P11473: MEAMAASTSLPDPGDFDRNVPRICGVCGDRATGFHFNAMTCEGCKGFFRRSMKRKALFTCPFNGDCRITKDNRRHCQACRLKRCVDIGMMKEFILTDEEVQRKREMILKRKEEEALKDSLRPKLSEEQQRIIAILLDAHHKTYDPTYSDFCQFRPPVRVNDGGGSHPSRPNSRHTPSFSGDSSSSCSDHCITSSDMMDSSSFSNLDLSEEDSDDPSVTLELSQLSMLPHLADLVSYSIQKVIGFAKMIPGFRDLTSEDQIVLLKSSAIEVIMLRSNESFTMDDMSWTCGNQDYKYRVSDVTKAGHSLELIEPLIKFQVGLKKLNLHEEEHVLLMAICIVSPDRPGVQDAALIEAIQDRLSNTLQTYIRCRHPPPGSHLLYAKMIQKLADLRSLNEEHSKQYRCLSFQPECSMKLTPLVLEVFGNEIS

target: Vitamin D3 receptor (Homo sapiens) (UniProt P11473); experiment: Inhibitors of the vitamin D receptor (VDR): qHTS; settings: VDR-SRC2-3 peptide fluorescence polarization, 2 h; max response, negative = inhibition: stronger effect = lower value
Summary of the method: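 Two reagent solutions held at 4 deg C in the dark were dispensed, compounds pinned at 23 nl, and the mixture incubated 2 h at room temperature. Read-out: fluorescence polarization of VDR–SRC2-3 peptide binding.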
% is scaled to controls: 0 for no effect and ±100 for the full control effect; potency is read from the fitted curve at half-maximal effect.

| Compound | max response, negative = inhibition | Potency |
| --- | --- | --- |
| O=C(NCCOc1ccc(F)cc1)c1ccccc1SCc1ccccc1 | inactive: -8.59% |  |
| COc1ccccc1-n1c(/C=C/c2c(C)n(C)c3ccccc23)nc2ccccc2c1=O |  | inconclusive: 79.4 µM [inhibitor, partial curve, poor fit] |
| Cc1nc(NC(=O)COC(=O)[C@@H](NC(=O)c2ccco2)C(C)C)c(Cl)cc1Cl |  | inconclusive: 50.1 µM [inhibitor, partial curve] |
| COc1ccc(C(c2c(O)ccc3ccccc23)N2CCOCC2)c(OC)c1 (centres undefined) |  | active: 70.8 µM |
| O=S(=O)(c1cccc(Br)c1)N1CCN(c2nc(-c3cccs3)nc3ccccc23)CC1 | inactive: -6.16% |  |
| S=c1[nH]nc(-c2cc3c(s2)-c2ccccc2CC3)o1 |  | inconclusive: 79.4 µM [inhibitor, single point] |
| CCNC(=S)NNC(=O)c1cc(C)on1 | inactive: 7.85% |  |
| N#CC1=C(N)NC(SCC(=O)c2ccc(Cl)cc2)=C(C#N)C12CCCC2 | inactive: 1.44% |  |
| O=C(N/N=C/c1ccc(-c2ccccc2[N+](=O)[O-])o1)c1cncc(Br)c1 |  | inconclusive: 56.2 µM [inhibitor, partial curve, poor fit] |
| C=CCn1c(SCCCc2ccccc2)nc2c1c(=O)[nH]c(=O)n2C |  | inconclusive: 79.4 µM [inhibitor, partial curve] |
| C=C(C)C(=O)/C=C/c1ccc(Br)cc1 |  | active: 17.8 µM |
| COc1cc(C=C(c2nc3ccccc3s2)c2nc3ccccc3s2)ccc1O | inactive: -3.54% |  |
| CCOC(=O)c1sc(N/N=C/c2ccccc2)nc1C |  | active: 44.7 µM |
| CSc1nnc2c3ccccc3c3ccccc3c2n1 |  | inconclusive: 22.4 µM [inhibitor, partial curve, poor fit] |
| C=CCOc1ccc(Br)cc1CNCCO |  | inconclusive: 25.1 µM [inhibitor, single point] |
| CC(=O)Nc1cccc(/C(C)=N/Nc2ccc(S(=O)(=O)Nc3ccccc3C(=O)O)cc2[N+](=O)[O-])c1 |  | inconclusive: 79.4 µM [inhibitor, single point] |
| Cn1c(Sc2ccc(C(=O)O)cc2[N+](=O)[O-])nnc1-c1ccccc1 |  | active: 79.4 µM |
| Cc1cccc2c(C(=O)O)cc(-c3cccnc3)nc12 | inactive: 12.2% |  |
| Cc1ccc(-n2ccnc(SCC(=O)NC3CCCCC3)c2=O)cc1F |  | inconclusive: 79.4 µM [inhibitor, single point] |
| COc1cc(C(=S)NCc2ccccc2)cc(Br)c1O |  | active: 50.1 µM |
| O=C(NCCS(=O)(=O)NCCc1ccccc1)c1ccccc1 |  | inconclusive: 70.8 µM [inhibitor, single point] |
| Clc1ccc(C2=Nn3c(Cn4nnc5ccccc54)nnc3SC2)cc1 |  | active: 79.4 µM |

| Compound | max response, negative = inhibition | Potency |
| --- | --- | --- |
| O=C(/C=C/c1cccc(Br)c1)c1ccc2c(c1)OCO2 |  | inconclusive: 50.1 µM [inhibitor, partial curve, poor fit] |
| CCc1nnc(NS(=O)(=O)c2ccc(NC(=O)c3cccc(OC)c3)cc2)s1 | inactive: 14% |  |
| O=c1cc(O)c2sc(Nc3cccc(C(F)(F)F)c3)nc2[nH]1 | inactive: -23.4% |  |
| NC(N)=N/N=C(\N=Nc1ccccc1)c1ccc(Cl)cc1 |  | inconclusive: 35.5 µM [inhibitor, partial curve] |
| CCOC(=O)c1c(NC(=O)CSc2nccc(=O)[nH]2)sc(C)c1C | inactive: -12.3% |  |
| NC(=O)c1ccccc1OCC(=O)Nc1ccc(Cl)c(Cl)c1 |  | inconclusive: 89.1 µM [inhibitor, partial curve, poor fit] |
| COc1ccc2nc3sc(C(=O)NCCCN4CCc5ccccc5C4)cc3cc2c1 |  | inconclusive: 50.1 µM [inhibitor, partial curve, poor fit] |
| CC1Sc2ccc(C(=O)O)cc2NC1=O (centres undefined) | inactive: -2.05% |  |
| N#CCn1cnc2c(oc3ccccc32)c1=O | inactive: -16.4% |  |
| COc1ccc(C)cc1Nc1nc(C)nc2sc(C)cc12 |  | inconclusive: 35.5 µM [inhibitor, single point] |
| C#CCOCCOCCOCCNc1nc(N2CCN(C(=O)[C@H](C(C)C)n3cc(CCO)nn3)CC2)nc(N2CCN(C(=O)[C@H]([C@@H](C)CC)n3cc(CCCN=C(N)N)nn3)CC2)n1 |  | inconclusive: 89.1 µM [inhibitor, partial curve, poor fit] |
| Cc1ccc(S(=O)(=O)NN2C(=O)/C(=C/c3cccc(F)c3)SC2=S)cc1 |  | inconclusive: 79.4 µM [inhibitor, partial curve, poor fit] |
| COCC(=O)N(C)[C@H]1C[C@H]2c3cc(N4CCN(C)CC4)ccc3CCN2C(=O)[C@H]1[C@H](C)O | inactive: 11.1% |  |
| CCNc1ccccc1CP(=O)(c1ccccc1)c1ccccc1O (centres undefined) |  | active: 20 µM |
| Nc1ccccc1C(=O)N1O[C@@H]2C=C[C@H]1C2 |  | inconclusive: 79.4 µM [inhibitor, single point] |
| Cc1cc(C)n(CCc2nc(-c3ccc(C)o3)cs2)n1 |  | inconclusive: 50.1 µM [inhibitor, partial curve] |
| COc1ccc(C2C(C#N)=C(N)Oc3cc(C)n(Cc4ccco4)c(=O)c32)cc1 (centres undefined) |  | inconclusive: 14.1 µM [inhibitor, partial curve] |
| Cc1ccccc1NC(=S)Nn1cnnc1 |  | inconclusive: 89.1 µM [inhibitor, single point] |
| CC(O)[C@H]1CC[C@H]2[C@@H]3CC[C@H]4C[C@@H](O)CC[C@]4(C)[C@H]3C(=O)C[C@]12C (some centres undefined) |  | inconclusive: 100 µM [inhibitor, single point] |
| Cc1cc(C(=O)OCC(=O)Nc2ccc(F)cc2[N+](=O)[O-])c2ccccc2n1 | inactive: -4.9% |  |
| CN(Cc1ccccc1)C(=O)C1CCN(S(=O)(=O)c2cccc3nsnc23)CC1 |  | inconclusive: 14.1 µM [inhibitor, partial curve, poor fit] |
| COc1ccc(C2(CNC(=O)c3ccc(OCC(C)C)cc3)CCOCC2)cc1 |  | inconclusive: 20 µM [inhibitor, full curve] |
